These are yes or no findings as the source states them, for the method shown. Some binding calls cover weakened binding; strength is not graded here.
Tests used:
[1] = target: chimpanzee CD40 expressed on peripheral blood B cells (chimpanzee) (UniProt K7BNQ5); assay: FACS analysis on peripheral blood B cells
[2] = target: cynomologus monkey CD40 expressed on peripheral blood B cells (cynomologus monkey) (UniProt G7PG38); assay: FACS analysis on peripheral blood B cells
[3] = target: baboon CD40 expressed on peripheral blood B cells (baboon); assay: FACS analysis on peripheral blood B cells
[4] = target: rhesus monkey CD40 expressed on peripheral blood B cells (rhesus monkey) (UniProt F6SNI1); assay: FACS analysis on peripheral blood B cells
[5] = target: soluble CD40 (Homo sapiens (Human)) (UniProt P25942); assay: ELISA-type assays
[6] = target: purified CD40 (Homo sapiens (Human)) (UniProt P25942); assay: FACS; 15B8 detected with FITC anti-huIgG on CD40L-expressing CHO cells via purified CD40

Sequences of proteins named here, by UniProt entry; tags and fusion partners are left off. A change or cut given only in a name is not applied to a line headed by its entry. A line that says so, or that is headed by a name, gives the form on record, which may keep a tag or linker.
rhesus monkey CD40 expressed on peripheral blood B cells (F6SNI1, form named): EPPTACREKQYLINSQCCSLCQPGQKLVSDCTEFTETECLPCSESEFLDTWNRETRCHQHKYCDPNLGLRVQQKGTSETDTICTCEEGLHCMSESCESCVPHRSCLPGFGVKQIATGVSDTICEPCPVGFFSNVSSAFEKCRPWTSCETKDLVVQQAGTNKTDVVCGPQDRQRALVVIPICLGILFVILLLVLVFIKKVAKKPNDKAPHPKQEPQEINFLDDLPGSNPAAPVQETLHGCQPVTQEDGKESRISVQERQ
UniProt P25942: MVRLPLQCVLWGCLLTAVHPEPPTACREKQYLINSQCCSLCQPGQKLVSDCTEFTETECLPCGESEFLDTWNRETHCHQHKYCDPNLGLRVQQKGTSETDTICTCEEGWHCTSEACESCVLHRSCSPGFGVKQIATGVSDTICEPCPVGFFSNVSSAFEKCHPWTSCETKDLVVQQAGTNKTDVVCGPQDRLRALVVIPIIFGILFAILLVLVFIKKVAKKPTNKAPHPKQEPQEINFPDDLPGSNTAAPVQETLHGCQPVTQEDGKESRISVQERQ

- binding [1]: binds
- binding [2]: binds
- binding [3]: binds
- binding [4]: binds
- binding [5]: binds
- binding [6]: binds
B1: 15B8, fully human anti-CD40 monoclonal antibody (antibody, human IgG2, V domains shown)
VH: QVQLQESGGGVVQPGRSLRLSCAASGFTFNNFGIHWVRQAPGKGLEWVAVISYDGSDKYYADSVKGRFTISRDNSKNTLNLQMNSLRAEDTAVYYCARDRRYYYHYYGMDVWGQGTMVTVSS
VL: DIVMTQSPLSLSVAPGQPASISCKSSQSLLESYGETYLYWYLQKPGQPPQLLIYAVFKRFSGVPDRFSGSGSGTDFTLKISRVEAEDVGVYYCMQSMQLPLTFGGGTKVEIK
notes: Human IgG2 isotype with human kappa light chain, from hybridoma 15B8 (Xenomouse); two heavy and two light chains, 1,284 residues in all; In one FACS format it was directly FITC-labelled; also called antagonist anti-CD40 antibody 15B8; 15B8 MAb
